US20160122742A1 (published 2016)
No constants are given. Whether binding was seen depends on the method and setting. In cells and extracts the contact can be indirect. Some entries that bind do so weakly or less than the wild type. Sequences can lack the tags named with a protein.

T1: Flag tagged full length Obi1 protein (human) (UniProt Q5W0B1)
T1 sequence: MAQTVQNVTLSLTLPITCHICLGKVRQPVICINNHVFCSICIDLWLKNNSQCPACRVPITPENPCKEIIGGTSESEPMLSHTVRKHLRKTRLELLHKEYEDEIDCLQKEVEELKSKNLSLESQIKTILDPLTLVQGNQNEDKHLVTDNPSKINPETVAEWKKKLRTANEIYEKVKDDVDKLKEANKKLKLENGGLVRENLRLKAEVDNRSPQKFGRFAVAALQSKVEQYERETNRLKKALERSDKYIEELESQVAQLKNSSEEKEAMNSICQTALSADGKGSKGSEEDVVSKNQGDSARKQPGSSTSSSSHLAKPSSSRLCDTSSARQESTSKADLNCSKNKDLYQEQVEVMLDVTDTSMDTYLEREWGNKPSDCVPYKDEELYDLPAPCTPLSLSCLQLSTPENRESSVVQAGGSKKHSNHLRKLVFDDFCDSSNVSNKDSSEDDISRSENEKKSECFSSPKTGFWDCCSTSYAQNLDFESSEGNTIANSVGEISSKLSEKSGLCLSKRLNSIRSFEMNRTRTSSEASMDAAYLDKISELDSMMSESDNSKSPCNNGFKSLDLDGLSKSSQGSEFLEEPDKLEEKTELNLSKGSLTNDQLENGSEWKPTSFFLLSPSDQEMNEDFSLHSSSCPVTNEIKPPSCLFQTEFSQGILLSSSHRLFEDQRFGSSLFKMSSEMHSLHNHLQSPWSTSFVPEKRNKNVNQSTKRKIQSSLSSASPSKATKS

T2: Flag tagged ORC1 (N-terminal Flag, pCS2-Flag) (human) (UniProt Q13415)
T2 sequence: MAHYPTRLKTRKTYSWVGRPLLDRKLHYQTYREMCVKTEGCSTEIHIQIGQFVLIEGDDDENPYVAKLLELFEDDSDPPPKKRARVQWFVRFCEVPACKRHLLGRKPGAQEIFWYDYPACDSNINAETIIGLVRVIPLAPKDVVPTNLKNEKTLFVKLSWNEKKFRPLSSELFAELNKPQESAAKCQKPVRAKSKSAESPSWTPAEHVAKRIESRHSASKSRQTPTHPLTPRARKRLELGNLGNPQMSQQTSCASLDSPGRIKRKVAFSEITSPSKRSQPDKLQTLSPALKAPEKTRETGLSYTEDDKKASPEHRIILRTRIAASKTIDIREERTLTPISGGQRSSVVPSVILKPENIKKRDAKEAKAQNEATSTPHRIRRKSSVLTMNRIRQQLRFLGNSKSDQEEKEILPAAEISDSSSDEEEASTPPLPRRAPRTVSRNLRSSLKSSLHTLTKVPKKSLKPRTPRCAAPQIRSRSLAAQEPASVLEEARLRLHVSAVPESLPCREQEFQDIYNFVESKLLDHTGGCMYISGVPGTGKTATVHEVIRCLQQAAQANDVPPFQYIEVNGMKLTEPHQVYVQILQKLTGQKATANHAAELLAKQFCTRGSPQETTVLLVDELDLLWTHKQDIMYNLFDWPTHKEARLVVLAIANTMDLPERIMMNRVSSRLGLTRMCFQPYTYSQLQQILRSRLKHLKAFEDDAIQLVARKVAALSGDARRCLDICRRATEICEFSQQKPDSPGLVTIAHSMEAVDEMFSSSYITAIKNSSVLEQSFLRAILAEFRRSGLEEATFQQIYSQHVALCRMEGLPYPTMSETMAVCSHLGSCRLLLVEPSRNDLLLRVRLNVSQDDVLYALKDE


Experiments:
[1] = biological target: T1, Flag tagged full length Obi1 protein (human); assay: anti-Flag co-immunoprecipitation from transfected U2OS cells, western blot with anti-Myc
[2] = biological target: T2, Flag tagged ORC1 (N-terminal Flag, pCS2-Flag) (human); assay: anti-Flag co-immunoprecipitation from transfected U2OS cells, western blot with anti-Myc (FIG. 4B)
[3] = biological target: T2, Flag tagged ORC1 (N-terminal Flag, pCS2-Flag) (human); assay: anti-Flag co-immunoprecipitation from transfected U2OS cells, western blot with anti-Myc

Binder | binding [1] | binding [2] | binding [3]
Myc tagged Obi1 CC (protein, not shown: small tags and cut ends) ACRVPITPENPCKEIIGGTSESEPMLSHTVRKHLRKTRLELLHKEYEDEIDCLQKEVEELKSKNLSLESQIKTILDPLTLVQGNQNEDKHLVTDNPSKINPETVAEWKKKLRTANEIYEKVKDDVDKLKEANKKLKLENGGLVRENLRLKAEVDNRSPQKFGRFAVAALQSKVEQYERETNRLKKALERSDKYIEELESQVAQLKNSSEEKEAMNSICQTALSADGK | binds | – | –
Myc tagged Obi1 ΔCTD/OBD (protein, not shown: small tags and cut ends) MAQTVQNVTLSLTLPITCHICLGKVRQPVICINNHVFCSICIDLWLKNNSQCPACRVPITPENPCKEIIGGTSESEPMLSHTVRKHLRKTRLELLHKEYEDEIDCLQKEVEELKSKNLSLESQIKTILDPLTLVQGNQNEDKHLVTDNPSKINPETVAEWKKKLRTANEIYEKVKDDVDKLKEANKKLKLENGGLVRENLRLKAEVDNRSPQKFGRFAVAALQSKVEQYERETNRLKKALERSDKYIEELESQVAQLKNSSEEKEAMNSICQTALSADGK | binds | – | –

Other lines, results leading:

binding [1] | binding [2] | binding [3] | Binder
binds | – | – | Myc tagged Obi1 ΔRING (protein, not shown: small tags and cut ends) ACRVPITPENPCKEIIGGTSESEPMLSHTVRKHLRKTRLELLHKEYEDEIDCLQKEVEELKSKNLSLESQIKTILDPLTLVQGNQNEDKHLVTDNPSKINPETVAEWKKKLRTANEIYEKVKDDVDKLKEANKKLKLENGGLVRENLRLKAEVDNRSPQKFGRFAVAALQSKVEQYERETNRLKKALERSDKYIEELESQVAQLKNSSEEKEAMNSICQTALSADGKGSKGSEEDVVSKNQGDSARKQPGSSTSSSSHLAKPSSSRLCDTSSARQESTSKADLNCSKNKDLYQEQVEVMLDVTDTSMDTYLEREWGNKPSDCVPYKDEELYDLPAPCTPLSLSCLQLSTPENRESSVVQAGGSKKHSNHLRKLVFDDFCDSSNVSNKDSSEDDISRSENEKKSECFSSPKTGFWDCCSTSYAQNLDFESSEGNTIANSVGEISSKLSEKSGLCLSKRLNSIRSFEMNRTRTSSEASMDAAYLDKISELDSMMSESDNSKSPCNNGFKSLDLDGLSKSSQGSEFLEEPDKLEEKTELNLSKGSLTNDQLENGSEWKPTSFFLLSPSDQEMNEDFSLHSSSCPVTNEIKPPSCLFQTEFSQGILLSSSHRLFEDQRFGSSLFKMSSEMHSLHNHLQSPWSTSFVPEKRNKNVNQSTKRKIQSSLSSASPSKATKS
binds | binds | binds | human Myc6-tagged Obi1 WT (enzyme, not shown: small tags and cut ends) MAQTVQNVTLSLTLPITCHICLGKVRQPVICINNHVFCSICIDLWLKNNSQCPACRVPITPENPCKEIIGGTSESEPMLSHTVRKHLRKTRLELLHKEYEDEIDCLQKEVEELKSKNLSLESQIKTILDPLTLVQGNQNEDKHLVTDNPSKINPETVAEWKKKLRTANEIYEKVKDDVDKLKEANKKLKLENGGLVRENLRLKAEVDNRSPQKFGRFAVAALQSKVEQYERETNRLKKALERSDKYIEELESQVAQLKNSSEEKEAMNSICQTALSADGKGSKGSEEDVVSKNQGDSARKQPGSSTSSSSHLAKPSSSRLCDTSSARQESTSKADLNCSKNKDLYQEQVEVMLDVTDTSMDTYLEREWGNKPSDCVPYKDEELYDLPAPCTPLSLSCLQLSTPENRESSVVQAGGSKKHSNHLRKLVFDDFCDSSNVSNKDSSEDDISRSENEKKSECFSSPKTGFWDCCSTSYAQNLDFESSEGNTIANSVGEISSKLSEKSGLCLSKRLNSIRSFEMNRTRTSSEASMDAAYLDKISELDSMMSESDNSKSPCNNGFKSLDLDGLSKSSQGSEFLEEPDKLEEKTELNLSKGSLTNDQLENGSEWKPTSFFLLSPSDQEMNEDFSLHSSSCPVTNEIKPPSCLFQTEFSQGILLSSSHRLFEDQRFGSSLFKMSSEMHSLHNHLQSPWSTSFVPEKRNKNVNQSTKRKIQSSLSSASPSKATKS
